# Assay results taken from patent publication EP1072948B1, “Thermally processed image recording material” (FUJIFILM Corporation, priority 1999, dated 2001).
# Assay: Example 2: fresh photographic properties of the ultrahigh contrast thermally processed image recording material containing the compound (783 nm laser exposure, heat development, densitometer)
# Settings: Table 3; 8×10^-2 mol/mol-Ag
row,Structure (SMILES),Fresh photographic property Dmax
1,CCCCCCOCCN(CC)C(=O)c1cccc(S(=O)(=O)C(Br)(Br)Br)c1 [Comparative Compound 1],3.2
2,CCNC(=O)c1ccccc1S(=O)(=O)C(Br)(Br)Br [Comparative Compound 3],4.1

# Same assay, conditions: Table 3; 8×10^-2 mol/mol-Ag; gradient between densities 0.3 and 1.5 above Dmin
row,Structure (SMILES),Fresh photographic property Contrast
1,CCCCCCOCCN(CC)C(=O)c1cccc(S(=O)(=O)C(Br)(Br)Br)c1 [Comparative Compound 1],9.5
2,CCNC(=O)c1ccccc1S(=O)(=O)C(Br)(Br)Br [Comparative Compound 3],19.5

# Same assay, conditions: Table 3; 8×10^-2 mol/mol-Ag; relative value, Experiment No. 1 = 100; exposure giving density Dmin + 1.0
row,Structure (SMILES),Fresh photographic property Sensitivity
1,CCCCCCOCCN(CC)C(=O)c1cccc(S(=O)(=O)C(Br)(Br)Br)c1 [Comparative Compound 1],82
2,CCNC(=O)c1ccccc1S(=O)(=O)C(Br)(Br)Br [Comparative Compound 3],108

# Same assay, conditions: Table 3; added amount 8×10^-2 mol/mol-Ag; heat development 120°C for 20 seconds; visible density
row,Structure (SMILES),Fresh photographic property Dmin
1,CCCCCCOCCN(CC)C(=O)c1cccc(S(=O)(=O)C(Br)(Br)Br)c1 [Comparative Compound 1],0.06
2,CCNC(=O)c1ccccc1S(=O)(=O)C(Br)(Br)Br [Comparative Compound 3],0.09

# Same assay, conditions: Table 4; 8×10^-2 mol/mol-Ag
row,Structure (SMILES),Fresh photographic property Dmax
1,O=C(c1cccc(S(=O)(=O)C(Br)(Br)Br)c1)N1CCCC1 [Comparative Compound (3)],4.1
2,CCOCCNC(=O)c1cccc(S(=O)(=O)C(Br)(Br)Br)c1 [P'-1],4.0
3,CCCCOCCCNC(=O)c1cccc(S(=O)(=O)C(Br)(Br)Br)c1 [P'-15],4.0
4,CCCC(C)NC(=O)c1cccc(S(=O)(=O)C(Br)(Br)Br)c1 (stereo not drawn) [P'-20],4.0

# Same assay, conditions: Table 4; 8×10^-2 mol/mol-Ag; gradient between densities 0.3 and 1.5 above Dmin
row,Structure (SMILES),Fresh photographic property Contrast
1,O=C(c1cccc(S(=O)(=O)C(Br)(Br)Br)c1)N1CCCC1 [Comparative Compound (3)],19.1
2,CCOCCNC(=O)c1cccc(S(=O)(=O)C(Br)(Br)Br)c1 [P'-1],20.3
3,CCCCOCCCNC(=O)c1cccc(S(=O)(=O)C(Br)(Br)Br)c1 [P'-15],20.3
4,CCCC(C)NC(=O)c1cccc(S(=O)(=O)C(Br)(Br)Br)c1 (stereo not drawn) [P'-20],20.3

# Same assay, conditions: Table 4; 8×10^-2 mol/mol-Ag; relative value, Experiment No. 1 = 100; exposure giving density Dmin + 1.0
row,Structure (SMILES),Fresh photographic property Sensitivity
1,O=C(c1cccc(S(=O)(=O)C(Br)(Br)Br)c1)N1CCCC1 [Comparative Compound (3)],99
2,CCOCCNC(=O)c1cccc(S(=O)(=O)C(Br)(Br)Br)c1 [P'-1],100
3,CCCCOCCCNC(=O)c1cccc(S(=O)(=O)C(Br)(Br)Br)c1 [P'-15],100
4,CCCC(C)NC(=O)c1cccc(S(=O)(=O)C(Br)(Br)Br)c1 (stereo not drawn) [P'-20],99

# Same assay, conditions: Table 4; added amount 8×10^-2 mol/mol-Ag; heat development 120°C for 20 seconds; visible density
row,Structure (SMILES),Fresh photographic property Dmin
1,O=C(c1cccc(S(=O)(=O)C(Br)(Br)Br)c1)N1CCCC1 [Comparative Compound (3)],0.06
2,CCOCCNC(=O)c1cccc(S(=O)(=O)C(Br)(Br)Br)c1 [P'-1],0.06
3,CCCCOCCCNC(=O)c1cccc(S(=O)(=O)C(Br)(Br)Br)c1 [P'-15],0.06
4,CCCC(C)NC(=O)c1cccc(S(=O)(=O)C(Br)(Br)Br)c1 (stereo not drawn) [P'-20],0.06

# Assay: Example 1: fresh photographic properties of the thermally processed image recording material containing the compound (660 nm laser exposure, heat development, densitometer)
# Settings: Table 1; 1.6×10^-1 mol/mol-Ag
row,Structure (SMILES),Fresh photographic property Dmax
1,CCCCCCOCCN(CC)C(=O)c1cccc(S(=O)(=O)C(Br)(Br)Br)c1 [Comparative Compound 1],2.5
2,CCNC(=O)c1ccccc1S(=O)(=O)C(Br)(Br)Br [Comparative Compound 3],3.0
3,COCCCNC(=O)c1cccc(S(=O)(=O)C(Br)(Br)Br)c1 [P-11],3.0
4,CCCCNS(=O)(=O)c1cccc(S(=O)(=O)C(Br)(Br)Br)c1 [P-18],3.0

# Same assay, conditions: Table 1; 1.6×10^-1 mol/mol-Ag; gradient between densities 0.5 and 1.5 above Dmin
row,Structure (SMILES),Fresh photographic property Contrast
1,CCCCCCOCCN(CC)C(=O)c1cccc(S(=O)(=O)C(Br)(Br)Br)c1 [Comparative Compound 1],2.3
2,CCNC(=O)c1ccccc1S(=O)(=O)C(Br)(Br)Br [Comparative Compound 3],2.8
3,COCCCNC(=O)c1cccc(S(=O)(=O)C(Br)(Br)Br)c1 [P-11],2.7
4,CCCCNS(=O)(=O)c1cccc(S(=O)(=O)C(Br)(Br)Br)c1 [P-18],2.7

# Same assay, conditions: Table 1; 1.6×10^-1 mol/mol-Ag; relative value, Experiment No. 1 of the table = 100; exposure giving density Dmin + 1.0
row,Structure (SMILES),Fresh photographic property Sensitivity
1,CCCCCCOCCN(CC)C(=O)c1cccc(S(=O)(=O)C(Br)(Br)Br)c1 [Comparative Compound 1],75
2,CCNC(=O)c1ccccc1S(=O)(=O)C(Br)(Br)Br [Comparative Compound 3],108
3,COCCCNC(=O)c1cccc(S(=O)(=O)C(Br)(Br)Br)c1 [P-11],101
4,CCCCNS(=O)(=O)c1cccc(S(=O)(=O)C(Br)(Br)Br)c1 [P-18],100

# Same assay, conditions: Table 1; added amount 1.6×10^-1 mol/mol-Ag; 118°C for 5 seconds then 122°C for 16 seconds; visible density
row,Structure (SMILES),Fresh photographic property Dmin
1,CCCCCCOCCN(CC)C(=O)c1cccc(S(=O)(=O)C(Br)(Br)Br)c1 [Comparative Compound 1],0.15
2,CCNC(=O)c1ccccc1S(=O)(=O)C(Br)(Br)Br [Comparative Compound 3],0.16
3,COCCCNC(=O)c1cccc(S(=O)(=O)C(Br)(Br)Br)c1 [P-11],0.15
4,CCCCNS(=O)(=O)c1cccc(S(=O)(=O)C(Br)(Br)Br)c1 [P-18],0.15

# Same assay, conditions: Table 2; 1.6×10^-1 mol/mol-Ag
row,Structure (SMILES),Fresh photographic property Dmax
1,CCCCCCCCCCCCCCCCNC(=O)c1cccc(S(=O)(=O)C(Br)(Br)Br)c1 [Comparative Compound (1)],3.0
2,O=C(c1cccc(S(=O)(=O)C(Br)(Br)Br)c1)N1CCCC1 [Comparative Compound (3)],3.1
3,CCCCCCCCN(CCCCCCCC)S(=O)(=O)c1ccc(S(=O)(=O)C(Br)(Br)Br)cc1 [Comparative Compound (4)],2.9
4,CCCCCCCCCCCCN(CCCCCCCCCCCC)C(=O)c1cc(S(C)(=O)=O)ccc1S(=O)(=O)C(Br)(Br)Br [Comparative Compound (5)],3.0
5,CCOCCNC(=O)c1cccc(S(=O)(=O)C(Br)(Br)Br)c1 [P'-1],3.0
6,CCCCOCCCNC(=O)c1cccc(S(=O)(=O)C(Br)(Br)Br)c1 [P'-15],3.0
7,CCC(CC)NC(=O)c1cccc(S(=O)(=O)C(Br)(Br)Br)c1 [P'-18],3.0
8,CCCC(C)NC(=O)c1cccc(S(=O)(=O)C(Br)(Br)Br)c1 (stereo not drawn) [P'-20],3.0

# Same assay, conditions: Table 2; 1.6×10^-1 mol/mol-Ag; gradient between densities 0.5 and 1.5 above Dmin
row,Structure (SMILES),Fresh photographic property Contrast
1,CCCCCCCCCCCCCCCCNC(=O)c1cccc(S(=O)(=O)C(Br)(Br)Br)c1 [Comparative Compound (1)],2.7
2,O=C(c1cccc(S(=O)(=O)C(Br)(Br)Br)c1)N1CCCC1 [Comparative Compound (3)],2.7
3,CCCCCCCCN(CCCCCCCC)S(=O)(=O)c1ccc(S(=O)(=O)C(Br)(Br)Br)cc1 [Comparative Compound (4)],2.7
4,CCCCCCCCCCCCN(CCCCCCCCCCCC)C(=O)c1cc(S(C)(=O)=O)ccc1S(=O)(=O)C(Br)(Br)Br [Comparative Compound (5)],2.7
5,CCOCCNC(=O)c1cccc(S(=O)(=O)C(Br)(Br)Br)c1 [P'-1],2.7
6,CCCCOCCCNC(=O)c1cccc(S(=O)(=O)C(Br)(Br)Br)c1 [P'-15],2.7
7,CCC(CC)NC(=O)c1cccc(S(=O)(=O)C(Br)(Br)Br)c1 [P'-18],2.7
8,CCCC(C)NC(=O)c1cccc(S(=O)(=O)C(Br)(Br)Br)c1 (stereo not drawn) [P'-20],2.7

# Same assay, conditions: Table 2; 1.6×10^-1 mol/mol-Ag; relative value, first experiment of the table = 100; exposure giving density Dmin + 1.0
row,Structure (SMILES),Fresh photographic property Sensitivity
1,CCCCCCCCCCCCCCCCNC(=O)c1cccc(S(=O)(=O)C(Br)(Br)Br)c1 [Comparative Compound (1)],99
2,O=C(c1cccc(S(=O)(=O)C(Br)(Br)Br)c1)N1CCCC1 [Comparative Compound (3)],101
3,CCCCCCCCN(CCCCCCCC)S(=O)(=O)c1ccc(S(=O)(=O)C(Br)(Br)Br)cc1 [Comparative Compound (4)],98
4,CCCCCCCCCCCCN(CCCCCCCCCCCC)C(=O)c1cc(S(C)(=O)=O)ccc1S(=O)(=O)C(Br)(Br)Br [Comparative Compound (5)],99
5,CCOCCNC(=O)c1cccc(S(=O)(=O)C(Br)(Br)Br)c1 [P'-1],100
6,CCCCOCCCNC(=O)c1cccc(S(=O)(=O)C(Br)(Br)Br)c1 [P'-15],100
7,CCC(CC)NC(=O)c1cccc(S(=O)(=O)C(Br)(Br)Br)c1 [P'-18],100
8,CCCC(C)NC(=O)c1cccc(S(=O)(=O)C(Br)(Br)Br)c1 (stereo not drawn) [P'-20],101

# Same assay, conditions: Table 2; added amount 1.6×10^-1 mol/mol-Ag; 118°C for 5 seconds then 122°C for 16 seconds; visible density
row,Structure (SMILES),Fresh photographic property Dmin
1,CCCCCCCCCCCCCCCCNC(=O)c1cccc(S(=O)(=O)C(Br)(Br)Br)c1 [Comparative Compound (1)],0.15
2,O=C(c1cccc(S(=O)(=O)C(Br)(Br)Br)c1)N1CCCC1 [Comparative Compound (3)],0.15
3,CCCCCCCCN(CCCCCCCC)S(=O)(=O)c1ccc(S(=O)(=O)C(Br)(Br)Br)cc1 [Comparative Compound (4)],0.15
4,CCCCCCCCCCCCN(CCCCCCCCCCCC)C(=O)c1cc(S(C)(=O)=O)ccc1S(=O)(=O)C(Br)(Br)Br [Comparative Compound (5)],0.15
5,CCOCCNC(=O)c1cccc(S(=O)(=O)C(Br)(Br)Br)c1 [P'-1],0.15
6,CCCCOCCCNC(=O)c1cccc(S(=O)(=O)C(Br)(Br)Br)c1 [P'-15],0.15
7,CCC(CC)NC(=O)c1cccc(S(=O)(=O)C(Br)(Br)Br)c1 [P'-18],0.15
8,CCCC(C)NC(=O)c1cccc(S(=O)(=O)C(Br)(Br)Br)c1 (stereo not drawn) [P'-20],0.15
